From PMC3496707
These are yes or no findings as the source states them, for the method shown. Binding calls can cover weak binding; strength is not graded here. Tags and fused reporters may be left off the sequences shown.

Molecular target: 6xHis-tagged recombinant LC2 (light chain of MAP1A) (rat)
Experiment: far-Western, overlay or dot blot; MAP1 proteins fractionated by SDS-PAGE, blotted onto nitrocellulose, probed with 10–100 µg/ml recombinant α1-syntrophin in 0.25% Tween 20 in PBS with 2% BSA for 2 h; detected with anti-syn1351; both purified

B1: NH2-terminally 6xHis-tagged full length mouse α1-syntrophin (protein, UniProt Q61234 1-503)
chain: MASGRRAPRTGLLELRCGAGSGAGGERWQRVLLSLAEDALTVSPADGEPGPEPEPAQLNGAAEPGAAPPQLPEALLLQRRRVTVRKADAGGLGISIKGGRENKMPILISKIFKGLAADQTEALFVGDAILSVNGEDLSSATHDEAVQALKKTGKEVVLEVKYMKEVSPYFKNSAGGTSVGWDSPPASPLQRQPSSPGPQPRNLSEAKHVSLKMAYVSRRCTPTDPEPRYLEICAADGQDAVFLRAKDEASARSWAGAIQAQIGTFIPWVKDELQALLTATGTAGSQDIKQIGWLTEQLPSGGTAPTLALLTEKELLFYCSLPQSREALSRPTRTAPLIATSSAHRLVHSGPSKGSVPYDAELSFALRTGTRHGVDTHLFSVESPQELAAWTRQLVDGCHRAAEGIQEVSTACTWNGRPCSLSVHIDKGFTLWAAEPGAARAMLLRQPFEKLQMSSDDGTSLLFLDFGGAEGEIQLDLHSCPKTMVFIIHSFLSAKVTRLGLLA
modifications: Eu3+-labeled (in the microtiter plate assay only)
With B1 the binding was “binds”.
